According to publication PMC4335217:
Results are given in words; binding and its absence hold for the method and conditions named. Binding seen in cells or lysates may run through a third protein. Some binding calls cover weakened binding; strength is not graded here.

Sequences of proteins named here, by UniProt entry; tags and fusion partners are left off.
UniProt Q4JK59: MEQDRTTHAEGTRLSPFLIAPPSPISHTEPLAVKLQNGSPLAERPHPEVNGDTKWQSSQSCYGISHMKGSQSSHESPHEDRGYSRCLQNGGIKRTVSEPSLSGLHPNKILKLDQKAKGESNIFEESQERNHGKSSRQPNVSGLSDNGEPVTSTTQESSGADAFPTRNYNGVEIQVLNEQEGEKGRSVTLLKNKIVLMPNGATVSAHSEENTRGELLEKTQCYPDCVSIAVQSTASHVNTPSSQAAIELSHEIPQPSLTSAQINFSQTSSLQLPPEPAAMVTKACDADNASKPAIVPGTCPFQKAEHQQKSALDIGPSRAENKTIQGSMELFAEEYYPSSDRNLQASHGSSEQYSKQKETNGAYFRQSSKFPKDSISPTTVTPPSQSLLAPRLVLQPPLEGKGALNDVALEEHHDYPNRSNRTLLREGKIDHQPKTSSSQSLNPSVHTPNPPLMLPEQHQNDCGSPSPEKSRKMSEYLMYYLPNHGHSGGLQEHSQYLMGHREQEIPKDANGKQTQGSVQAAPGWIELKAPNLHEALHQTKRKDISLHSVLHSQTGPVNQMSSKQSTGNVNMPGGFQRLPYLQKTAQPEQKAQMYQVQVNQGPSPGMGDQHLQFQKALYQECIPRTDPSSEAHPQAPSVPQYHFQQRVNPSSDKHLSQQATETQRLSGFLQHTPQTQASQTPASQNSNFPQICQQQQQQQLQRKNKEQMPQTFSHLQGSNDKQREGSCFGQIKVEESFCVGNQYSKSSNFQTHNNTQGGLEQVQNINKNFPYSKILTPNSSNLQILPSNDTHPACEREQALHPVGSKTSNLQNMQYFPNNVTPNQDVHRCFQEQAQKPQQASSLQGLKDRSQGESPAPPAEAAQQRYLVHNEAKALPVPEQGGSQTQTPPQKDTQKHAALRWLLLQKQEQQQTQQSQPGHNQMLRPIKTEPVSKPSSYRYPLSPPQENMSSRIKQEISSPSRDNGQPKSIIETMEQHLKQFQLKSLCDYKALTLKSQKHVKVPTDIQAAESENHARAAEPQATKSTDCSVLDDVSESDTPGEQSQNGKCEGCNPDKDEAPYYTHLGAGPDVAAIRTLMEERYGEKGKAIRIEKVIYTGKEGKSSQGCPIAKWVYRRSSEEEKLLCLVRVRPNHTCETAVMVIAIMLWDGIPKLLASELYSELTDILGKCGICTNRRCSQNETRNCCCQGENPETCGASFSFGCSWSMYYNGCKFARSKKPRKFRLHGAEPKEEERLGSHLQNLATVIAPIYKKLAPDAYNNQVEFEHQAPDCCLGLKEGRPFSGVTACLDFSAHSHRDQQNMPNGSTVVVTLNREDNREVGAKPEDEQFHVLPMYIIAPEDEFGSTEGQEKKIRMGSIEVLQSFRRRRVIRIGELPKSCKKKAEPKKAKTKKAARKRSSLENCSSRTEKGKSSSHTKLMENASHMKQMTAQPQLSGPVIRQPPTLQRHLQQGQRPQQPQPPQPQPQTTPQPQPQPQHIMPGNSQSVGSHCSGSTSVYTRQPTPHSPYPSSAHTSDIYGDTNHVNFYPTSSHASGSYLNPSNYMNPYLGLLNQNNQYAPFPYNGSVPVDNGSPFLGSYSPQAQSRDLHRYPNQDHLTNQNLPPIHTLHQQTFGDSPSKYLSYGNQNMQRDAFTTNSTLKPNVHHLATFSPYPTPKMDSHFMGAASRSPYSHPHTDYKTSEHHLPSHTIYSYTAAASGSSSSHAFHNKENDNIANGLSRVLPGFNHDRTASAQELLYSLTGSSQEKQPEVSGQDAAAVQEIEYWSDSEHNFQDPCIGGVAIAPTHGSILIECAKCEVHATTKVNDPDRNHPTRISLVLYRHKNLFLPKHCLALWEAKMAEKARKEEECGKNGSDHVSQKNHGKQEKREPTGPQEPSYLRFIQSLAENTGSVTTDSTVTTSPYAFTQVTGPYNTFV

Biological target: GFP-TET2 (murine) (UniProt Q4JK59)
Assay: co-IP; GFP-tagged TET proteins coexpressed with Cherry-OGT or Cherry-OGT^mut in HEK293T cells; enriched with GFP-Trap; Western blot, Cherry-tagged OGT detected with anti-RED antibody

binding	Binder
binds	Cherry-OGT(H508A) (enzyme, UniProt Q8CGY8 1-1046) MASSVGNVADSTEPTKRMLSFQGLAELAHREYQAGDFEAAERHCMQLWRQEPDNTGVLLLLSSIHFQCRRLDRSAHFSTLAIKQNPLLAEAYSNLGNVYKERGQLQEAIEHYRHALRLKPDFIDGYINLAAALVAAGDMEGAVQAYVSALQYNPDLYCVRSDLGNLLKALGRLEEAKACYLKAIETQPNFAVAWSNLGCVFNAQGEIWLAIHHFEKAVTLDPNFLDAYINLGNVLKEARIFDRAVAAYLRALSLSPNHAVVHGNLACVYYEQGLIDLAIDTYRRAIELQPHFPDAYCNLANALKEKGSVAEAEDCYNTALRLCPTHADSLNNLANIKREQGNIEEAVRLYRKALEVFPEFAAAHSNLASVLQQQGKLQEALMHYKEAIRISPTFADAYSNMGNTLKEMQDVQGALQCYTRAIQINPAFADAHSNLASIHKDSGNIPEAIASYRTALKLKPDFPDAYCNLAHCLQIVCDWTDYDERMKKLVSIVAEQLEKNRLPSVHPAHSMLYPLSHGFRKAIAERHGNLCLDKINVLHKPPYEHPKDLKLSDGRLRVGYVSSDFGNHPTSHLMQSIPGMHNPDKFEVFCYALSPDDGTNFRVKVMAEANHFIDLSQIPCNGKAADRIHQDGIHILVNMNGYTKGARNELFALRPAPIQAMWLGYPGTSGALFMDYIITDQETSPAEVAEQYSEKLAYMPHTFFIGDHANMFPHLKKKAVIDFKSNGHIYDNRIVLNGIDLKAFLDSLPDVKIVKMKCPDGGDNPDSSNTALNMPVIPMNTIAEAVIEMINRGQIQITINGFSISNGLATTQINNKAATGEEVPRTIIVTTRSQYGLPEDAIVYCNFNQLYKIDPSTLQMWANILKRVPNSVLWLLRFPAVGEPNIQQYAQNMGLPQNRIIFSPVAPKEEHVRRGQLADVCLDTPLCNGHTTGMDVLWAGTPMVTMPGETLASRVAASQLTCLGCLELIAKSRQEYEDIAVKLGTDLEYLKKIRGKVWKQRISSPLFNTKQYTMELERLYLQMWEHYAAGNKPDHMIKPVEVTESA
binds	Cherry-OGT (enzyme, UniProt Q8CGY8 1-1046) MASSVGNVADSTEPTKRMLSFQGLAELAHREYQAGDFEAAERHCMQLWRQEPDNTGVLLLLSSIHFQCRRLDRSAHFSTLAIKQNPLLAEAYSNLGNVYKERGQLQEAIEHYRHALRLKPDFIDGYINLAAALVAAGDMEGAVQAYVSALQYNPDLYCVRSDLGNLLKALGRLEEAKACYLKAIETQPNFAVAWSNLGCVFNAQGEIWLAIHHFEKAVTLDPNFLDAYINLGNVLKEARIFDRAVAAYLRALSLSPNHAVVHGNLACVYYEQGLIDLAIDTYRRAIELQPHFPDAYCNLANALKEKGSVAEAEDCYNTALRLCPTHADSLNNLANIKREQGNIEEAVRLYRKALEVFPEFAAAHSNLASVLQQQGKLQEALMHYKEAIRISPTFADAYSNMGNTLKEMQDVQGALQCYTRAIQINPAFADAHSNLASIHKDSGNIPEAIASYRTALKLKPDFPDAYCNLAHCLQIVCDWTDYDERMKKLVSIVAEQLEKNRLPSVHPHHSMLYPLSHGFRKAIAERHGNLCLDKINVLHKPPYEHPKDLKLSDGRLRVGYVSSDFGNHPTSHLMQSIPGMHNPDKFEVFCYALSPDDGTNFRVKVMAEANHFIDLSQIPCNGKAADRIHQDGIHILVNMNGYTKGARNELFALRPAPIQAMWLGYPGTSGALFMDYIITDQETSPAEVAEQYSEKLAYMPHTFFIGDHANMFPHLKKKAVIDFKSNGHIYDNRIVLNGIDLKAFLDSLPDVKIVKMKCPDGGDNPDSSNTALNMPVIPMNTIAEAVIEMINRGQIQITINGFSISNGLATTQINNKAATGEEVPRTIIVTTRSQYGLPEDAIVYCNFNQLYKIDPSTLQMWANILKRVPNSVLWLLRFPAVGEPNIQQYAQNMGLPQNRIIFSPVAPKEEHVRRGQLADVCLDTPLCNGHTTGMDVLWAGTPMVTMPGETLASRVAASQLTCLGCLELIAKSRQEYEDIAVKLGTDLEYLKKIRGKVWKQRISSPLFNTKQYTMELERLYLQMWEHYAAGNKPDHMIKPVEVTESA
